This is one part of the list. These are further read-outs of the screen, such as a control signal, another cell line or another target. No call is given for them. Compounds called inactive in the main read-out are mostly missing here. The note in brackets gives the kind of curve behind each potency; many fits are weak.
Assay: qHTS Assay for Lipid Storage Modulators in Drosophila S3 Cells;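 for cell number change: cells counted by Cell Tracker Red CMTPX staining in the red channel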
Settings: BODIPY lipid droplet fluorescence, 18-24 h; for cell number change: measured here: cell count max response, cells fed with added oleic acid
Outline: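 Drosophila S3 cells got compounds at several concentrations plus oleic acid (400 uM solution). Laser-scanning cytometry with 488 nm excitation read lipid droplets at 500-530 nm and cells at 575-640 nm. Percent activity was relative to 20 uM Triacsin C.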

[1] = measured here: lipid fluorescence (Fed channel) AC50, cells fed with added oleic acid
[2] = measured here: cell number channel AC50, cells fed with added oleic acid

In the case of `Cc1ccc2c(COC(=O)c3ccccc3Cl)cc(=O)oc2c1`, the AC50 [1] is reported as 0.00461 µM [falling, full curve, poor fit].

For `COc1ccc(CNC(=O)CSc2nnc(C)n2-c2ccc(F)cc2)cc1`, the cell number change was 14.2% and the AC50 [1] was 6.51 µM [rising, single point].

In the case of `CC(C)CCNC(=O)c1ccc(Cl)c(N)c1`, the cell number change is reported as -2.87%, the AC50 [2] is reported as 1.46 µM [falling, partial curve] and the AC50 [1] is reported as 1.16 µM [falling, full curve].

`CCOCCCNC(=O)c1cn(C)c2ccc(S(=O)(=O)N3CCCC3)cc2c1=O` gave a cell number change of -13%.

In the case of `COc1ccc(C)cc1N(CC(=O)NC1CCCC1)C(=O)Cn1nnc(-c2ccc(C)o2)n1`, the cell number change is reported as 10.5% and the AC50 [1] is reported as 6.51 µM [falling, full curve, poor fit].

For `O=C(O)c1ccc(Oc2ccc(C(F)(F)F)cn2)cc1`, the cell number change was 8.06%, the AC50 [2] was 0.651 µM [falling, full curve] and the AC50 [1] was 5.17 µM [falling, single point].

With `O=C(Cn1nc([N+](=O)[O-])nc1Br)NC(c1ccccc1)c1ccccc1` the cell number change was -46%, the AC50 [2] was 20.6 µM [falling, partial curve] and the AC50 [1] was 29.1 µM [falling, single point].

In the case of `CC(NC(=O)c1ccco1)C(=O)N1CCN(C(c2ccccc2)c2ccccc2)CC1` (configuration not stated), the AC50 [2] is reported as 2.31 µM [rising, partial curve].

In the case of `CC(C)C(NC(=O)c1ccc([N+](=O)[O-])cc1Cl)C(=O)N1CCCC1` (configuration not stated), the cell number change is reported as 7.62% and the AC50 [1] is reported as 0.206 µM [falling, single point].

With `CC(C)C[C@@H](C(=O)O)N(Cc1cccc(CN([C@@H](CC(C)C)C(=O)O)S(C)(=O)=O)c1)S(C)(=O)=O` the cell number change was -2.69% and the AC50 [1] was 6.51 µM [rising, partial curve].

With `Cc1[nH]nc(SCC(=O)N2CCCCC2)c1[N+](=O)[O-]` the cell number change was 22.1% and the AC50 [1] was 6.51 µM [falling, partial curve].

With `Cc1[nH]c2ccc(C(=O)NCC(C)(C)N3CCOCC3)cc2c1C` the AC50 [1] was 1.3 µM [rising, partial curve].

For `CCOC(=O)C(NC(=O)CC)(Nc1ccc(S(=O)(=O)Nc2ncccn2)cc1)C(F)(F)F` (configuration not stated), the cell number change was -47.7%, the AC50 [2] was 2.06 µM [falling, partial curve, poor fit] and the AC50 [1] was 4.61 µM [falling, full curve].

In the case of `CC1C2CC(C(S(=O)(=O)N3CCOCC3)C2=O)C1(C)C` (configuration not stated), the cell number change is reported as -0.817% and the AC50 [1] is reported as 6.51 µM [falling, single point].

With `O=C(c1cc(-c2ccc(O)cc2)on1)N1CCOCC1` the cell number change was 14.3% and the AC50 [1] was 2.91 µM [falling, single point].

`Cc1ccc(C(=O)Nc2cccc(C(=O)NCc3ccco3)c2)cc1` gave a cell number change of 10.9%.

In the case of `COc1ccc(Cl)cc1NC(=O)c1[nH]nc(OC)c1[N+](=O)[O-]`, the cell number change is reported as -29.8%.

With `CCOc1ccc(S(=O)(=O)Nc2ccc(C(=O)NCc3ccncc3)cc2)cc1` the cell number change was -10.6% and the AC50 [1] was 0.184 µM [falling, partial curve, poor fit].

In the case of `COc1ccc(C2=CC(c3ccco3)n3ncnc3N2)cc1` (configuration not stated), the cell number change is reported as 54% and the AC50 [2] is reported as 6.51 µM [rising, partial curve].

In the case of `O=C1CCC(C(=O)O)N1` (configuration not stated), the cell number change is reported as 3.42% and the AC50 [1] is reported as 29.1 µM [rising, single point].

For `COC(=O)CCCC(=O)N1CCC(n2nccc2NC(=O)CCOc2ccccc2)CC1`, the cell number change was -16.2% and the AC50 [1] was 4.61 µM [falling, partial curve].

In the case of `O=C(NC(=S)Nc1ccc(S(=O)(=O)N2CCCC2)cc1)c1cccs1`, the cell number change is reported as -22% and the AC50 [2] is reported as 0.0058 µM [falling, full curve, poor fit].

`C/C(=N/NC(=O)c1cc(O)c(O)c(O)c1)c1ccc([N+](=O)[O-])cc1` showed a cell number change of 6.85%.

In the case of `Cc1cc(C)cc(NCC(=O)Nc2c(C)cccc2C)c1`, the cell number change is reported as 85.3%, the AC50 [2] is reported as 9.2 µM [rising, partial curve] and the AC50 [1] is reported as 9.2 µM [rising, partial curve].

In the case of `Cc1ccccc1C(OCCN(C)C)c1ccccc1` (configuration not stated), the cell number change is reported as -8.63%.

In the case of `Nc1c(C(=O)Nc2ccc3c(c2)OCCO3)nnn1Cc1ccccc1`, the cell number change is reported as -8.87%.

With `COc1ccccc1NC(=O)c1sc(NC(=O)c2ccco2)c(C#N)c1C` the AC50 [2] was 2.06 µM [rising, partial curve] and the AC50 [1] was 4.11 µM [rising, partial curve].

For `Clc1ccc(Cn2ncc3c(NCc4ccccc4)ncnc32)cc1`, the cell number change was -31.3% and the AC50 [2] was 29.1 µM [falling, single point].

In the case of `CCn1c(=NC(=O)CSCC(=O)Nc2nccs2)sc2ccccc21`, the cell number change is reported as 46.2%, the AC50 [2] is reported as 0.411 µM [rising, partial curve] and the AC50 [1] is reported as 2.91 µM [rising, partial curve].

In the case of `OCC1(Cc2ccc(F)cc2F)CCCN(Cc2ccc(Cl)cc2)C1` (configuration not stated), the cell number change is reported as -48% and the AC50 [2] is reported as 6.51 µM [falling, partial curve].

With `Cc1nc2cc(NC(=O)NCc3ccc4c(c3)OCO4)ccc2o1` the cell number change was 65.5%, the AC50 [2] was 1.16 µM [rising, full curve] and the AC50 [1] was 2.31 µM [rising, full curve].

In the case of `CCOC(=O)Cn1c(=NC(=O)c2cc(-c3cccs3)nc3ccccc23)sc2cc(S(N)(=O)=O)ccc21`, the cell number change is reported as -11.7% and the AC50 [1] is reported as 0.164 µM [rising, full curve, poor fit].

In the case of `COc1ccc(N2CCN(C(=O)C(=O)c3cn(CC(=O)N4CCOCC4)c4ccccc34)CC2)cc1`, the cell number change is reported as 67.6%, the AC50 [2] is reported as 29.1 µM [rising, single point] and the AC50 [1] is reported as 7.31 µM [rising, partial curve].

For `CCCN1C(=O)c2cc(C(=O)O)ccc2C1O` (configuration not stated), the cell number change was -36.8%, the AC50 [2] was 0.259 µM [falling, full curve, poor fit] and the AC50 [1] was 0.184 µM [falling, full curve, poor fit].

With `COc1cccc(CNC(=O)[C@H](CCSC)NC(=O)N2CCn3c2nc2ccccc23)c1` the cell number change was -7.66% and the AC50 [1] was 20.6 µM [falling, partial curve].

In the case of `Cc1cc(Cl)c(S(=O)(=O)NC2CCCCC2)cc1OCC(=O)Nc1nncs1`, the cell number change is reported as -32.7%, the AC50 [2] is reported as 20.6 µM [falling, single point] and the AC50 [1] is reported as 23.1 µM [falling, partial curve].

With `Cc1cc(SCC(=O)OC/C(O)=C(\C#N)c2nc3ccccc3[nH]2)c(C)cc1Br` the cell number change was -12.6% and the AC50 [1] was 29.1 µM [falling, single point].

For `Cc1cccc(-n2cnc(C(=O)N3CCN(C)CC3)c2)n1`, the cell number change was 36.9%.

In the case of `O=C(CCN1C(=O)/C(=C/c2ccc(Cl)cc2)SC1=S)Nc1cccc(C(=O)O)c1`, the cell number change is reported as 2.76% and the AC50 [1] is reported as 0.00411 µM [falling, full curve, poor fit].

In the case of `O=C1c2ccc(Oc3ccc4c(c3)C(=O)N(CCCO)C4=O)cc2C(=O)N1CCCO`, the cell number change is reported as -4.45% and the AC50 [1] is reported as 1.46 µM [falling, partial curve].

In the case of `CN1C(=O)N(C)C2(c3ccccc3)NC(=O)NC12c1ccccc1` (configuration not stated), the cell number change is reported as -50.4%, the AC50 [2] is reported as 1.16 µM [falling, full curve] and the AC50 [1] is reported as 1.16 µM [falling, full curve].

For `CN(C)c1ccc(C2C3C(=O)NC(=O)C3ON2c2ccc(Cl)cc2)cc1` (configuration not stated), the cell number change was 34.2%, the AC50 [2] was 4.61 µM [rising, single point] and the AC50 [1] was 6.51 µM [rising, single point].

For `O=C(Nc1nc2ccccc2s1)c1ccccc1[N+](=O)[O-]`, the cell number change was -16.2% and the AC50 [1] was 23.1 µM [rising, single point].

With `Cc1ccc2c(cnn2C(=O)CCC(=O)NCc2cccc(Cl)c2)c1` the cell number change was 7.49%, the AC50 [2] was 0.731 µM [rising, single point] and the AC50 [1] was 6.51 µM [rising, single point].

In the case of `COCc1cc(=O)[nH]c(-c2ccc(C(F)(F)F)cc2)n1`, the cell number change is reported as -14% and the AC50 [1] is reported as 0.13 µM [falling, full curve, poor fit].

With `COc1ccc(NC(=O)CN(C)C(=O)/C=C/c2ccc(OCc3ccccc3)cc2)cc1` the AC50 [1] was 0.631 µM [falling, full curve, poor fit].

In the case of `O=c1c2ccccc2oc2cc(-c3ccc(CN4CCOCC4)cc3)ccc12`, the cell number change is reported as -6.27% and the AC50 [1] is reported as 7.31 µM [falling, single point].

For `CCOc1ccc2[nH]c3c(NCCCOC)ncnc3c2c1`, the cell number change was -54.3%, the AC50 [2] was 20.6 µM [falling, partial curve] and the AC50 [1] was 32.6 µM [falling, partial curve].

In the case of `O=c1[nH]nc(CSCc2ccccc2Cl)[nH]1`, the AC50 [2] is reported as 6.51 µM [falling, partial curve, poor fit] and the AC50 [1] is reported as 0.651 µM [falling, full curve].

For `O=C(COc1ccc2ccc(=O)oc2c1)N1CCc2ccccc21`, the AC50 [2] was 0.517 µM [falling, single point] and the AC50 [1] was 6.51 µM [falling, single point].

With `CCCCN(CCCNC(=O)c1c(C)cc(=O)oc1C)c1ccccc1` the cell number change was 114% and the AC50 [2] was 16.4 µM [rising, single point].

In the case of `COCCN(C(=O)CSc1ncn[nH]1)c1c(N)n(Cc2ccccc2)c(=O)[nH]c1=O`, the cell number change is reported as -11.3% and the AC50 [1] is reported as 16.4 µM [falling, partial curve].

In the case of `CN(C)S(=O)(=O)c1ccc(Cl)c(C(=O)Nc2ccc(S(=O)(=O)N3CCOCC3)cc2)c1`, the cell number change is reported as 1.67% and the AC50 [1] is reported as 5.17 µM [falling, single point].

In the case of `CSc1nc(C(C)C)ccc1CNC(=O)CC(C)c1ccccc1` (configuration not stated), the cell number change is reported as -4.17% and the AC50 [1] is reported as 6.51 µM [rising, single point].

Work on `CC(C)OC(=O)NCCOC(=O)Nc1ccc(Cl)cc1` yielded a cell number change of 5.37%.

With `CCOC(=O)CC(=O)c1[nH]c(C)c(C(=O)OCC)c1C` the cell number change was 49.7%, the AC50 [2] was 0.651 µM [rising, full curve] and the AC50 [1] was 0.651 µM [rising, full curve].

In the case of `CC(=O)Nc1ccc(C(=S)NCC2(N(C)C)CCCCC2)cc1`, the cell number change is reported as 24.6% and the AC50 [2] is reported as 0.0366 µM [rising, single point].
